PubChem BioAssay AID504793, Drosophila RNAi Screening Center, 2011
Screen: 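Genes required for cells to halt at G2/M after double-strand DNA breaks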 (primary screen). Cell system: Drosophila S2R+ cells. Knock-down reagent: long dsRNA against Drosophila genes, about 0.25 µg dsRNA per well. Duration: 4 days of dsRNA, then 4 hours of drug before read-out. Treatment: doxorubicin 0.5 µM for 4 hours to cause double-strand breaks, in cells also given a low, harmless dose of dsRNA against nbs to sensitise the assay. Detection: 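Per-well count of mitotic cells stained for phospho-histone H3 after doxorubicin exposure, used as mitotic index; counts are raw and not normalised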. Direction: mitotic cells: higher = more cells in mitosis, weaker G2 arrest. Active means: 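Genes are called active only when high mitotic counts were reproduced with independent dsRNAs and mitosis was checked for delay without damage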. Calls: active = confirmed in follow-up tests; inactive = not confirmed.
The screen tested about 23,000 reagents; shown is an unselected part of those with a known target gene and a result. Of all reagents, 62 (0.27%) are marked active. 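Calls come from follow-up tests whose scores are not deposited, so confirmed genes may have low counts here; counts are not normalised per plate.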 The raw values are shown without normalisation. Reagents against one gene are numbered here. A plus sign joins genes that one reagent is predicted to hit.

target | dsRNA no. | mitotic cells, replicate 1 | mitotic cells, replicate 2 | outcome
Lon | 1 | 11 | – | inactive
Lon | 2 | 5 | – | inactive
Vha55 | 1 | 9 | – | inactive
Vha55 | 2 | 12 | – | inactive
CG31142 | 1 | 4 | – | inactive
CG10445 | 1 | 6 | – | inactive
CG3961 | 1 | 8 | – | inactive
CG3961 | 2 | 8 | – | inactive
grh | 1 | 25 | – | inactive
grh | 2 | 10 | – | inactive
grh | 3 | 7 | – | inactive
grh | 4 | 9 | – | inactive
grh | 5 | 4 | – | inactive
grh | 6 | 7 | – | inactive
Atg16 | 1 | 4 | – | inactive
Atg16 | 2 | 13 | – | inactive
Atg16 | 3 | 10 | – | inactive
Pif1A | 1 | 6 | – | inactive
CG15734 | 1 | 16 | – | inactive
nvy | 1 | 3 | 13 | inactive
trr | 1 | 14 | – | inactive
trr | 2 | 9 | – | inactive
NetA | 1 | 12 | – | inactive
CG7768 | 1 | 9 | – | inactive
Obp50b + Obp50c | 1 | 10 | – | inactive
Gip | 1 | 8 | – | inactive
CG13856 | 1 | 6 | – | inactive
CG11658 | 1 | 5 | – | inactive
Rpn7 | 1 | 55 | – | inactive
Rpn7 | 2 | 28 | – | inactive
CG32074 | 1 | 4 | – | inactive
CG32074 | 2 | 8 | – | inactive
CG11069 | 1 | 15 | – | inactive
IntS3 | 1 | 11 | – | inactive
eIF2gamma | 1 | 8 | – | inactive
eIF2gamma | 2 | 1 | – | inactive
eIF2gamma | 3 | 2 | – | inactive
THADA | 1 | 4 | – | inactive
Ythdf | 1 | 7 | – | inactive
Ythdf | 2 | 18 | – | inactive
CG33170 | 1 | 6 | – | inactive
CG32104 | 1 | 5 | – | inactive
CG32104 | 2 | 6 | – | inactive
CG4404 | 1 | 15 | – | inactive
CG4404 | 2 | 5 | – | inactive
ATPsynF | 1 | 8 | – | inactive
CG3630 | 1 | 6 | – | inactive
CG3630 | 2 | 3 | – | inactive
CG30109 | 1 | 4 | – | inactive
CG14717 | 1 | 2 | – | inactive
CG14052 | 1 | 8 | – | inactive
CG14052 | 2 | 9 | – | inactive
CG14052 | 3 | 4 | – | inactive
CG9130 + CG9133 | 1 | 8 | – | inactive
CG9130 + CG9133 | 2 | 8 | – | inactive
CG9130 + CG9133 | 3 | 8 | – | inactive
CG9130 + CG9133 | 4 | 10 | – | inactive
CG31717 | 1 | 11 | – | inactive
Hsp67Bc | 1 | 2 | – | inactive
Hsp67Bc | 2 | 3 | – | inactive
CG14406 | 1 | 5 | – | inactive
vex | 1 | 9 | – | inactive
vex | 2 | 11 | – | inactive
vex | 3 | 6 | – | inactive
vex | 4 | 6 | – | inactive
Hey | 1 | 13 | – | inactive
CG12698 | 1 | 9 | – | inactive
CG12698 | 2 | 5 | – | inactive
CR18217 | 1 | 9 | – | inactive
Cks30A | 1 | 8 | – | inactive
Gr63a | 1 | 12 | – | inactive
CG31087 | 1 | 8 | – | inactive
CG6276 | 1 | 7 | – | inactive
CG6276 | 2 | 8 | – | inactive
CG30203 | 1 | 7 | – | inactive
CG10561 | 1 | 3 | – | inactive
CG12481 | 1 | 9 | – | inactive
CG18764 | 1 | 4 | – | inactive
Kap-alpha1 | 1 | 6 | – | inactive
Polr1H | 1 | 8 | – | inactive
Polr1H | 2 | 3 | – | inactive
TfIIFbeta | 1 | 9 | – | inactive
TfIIFbeta | 2 | 12 | – | inactive
TfIIFbeta | 3 | 17 | – | inactive
Nepl15 | 1 | 3 | – | inactive
CG17475 | 1 | 5 | – | inactive
CG17475 | 2 | 5 | – | inactive
Vm26Aa | 1 | 2 | – | inactive
Vm26Aa | 2 | 3 | – | inactive
Tim13 | 1 | 8 | – | inactive
Cpes | 1 | 8 | – | inactive
Cpes | 2 | 3 | – | inactive
MCPH1 | 1 | 5 | – | inactive
MCPH1 | 2 | 5 | – | inactive
MCPH1 | 3 | 10 | – | inactive
MCPH1 | 4 | 6 | – | inactive
Jhbp15 | 1 | 7 | – | inactive
Or49b | 1 | 7 | – | inactive
blp | 1 | 5 | – | inactive
blp | 2 | 5 | – | inactive
RpL24 | 1 | 4 | – | inactive
RpL24 | 2 | 10 | – | inactive
CG17440 | 1 | 16 | – | inactive
CG2750 | 1 | 5 | 8 | inactive
Gbeta76C | 1 | 9 | – | inactive
Pp4-19C | 1 | 13 | – | inactive
Pp4-19C | 2 | 34 | – | inactive
Pp4-19C | 3 | 11 | – | inactive
Pp4-19C | 4 | 4 | – | inactive
Cyt-b5 | 1 | 4 | – | inactive
